Data from US20150232557A1 (APTEVO RESEARCH AND DEVELOPMENT, published 2015).
Substitutions are numbered along the chain they refer to. In names and notes the source's numbering stands. These are yes or no findings as the source states them, for the method shown. Some results given as binding are weak or reduced against the parent protein; the word gives no strength. Sequences can lack the tags named with a protein.

By UniProt entry, the sequences of proteins in these tests, tags left out. Residues count along the entry.
UniProt P07766, residues 23-207: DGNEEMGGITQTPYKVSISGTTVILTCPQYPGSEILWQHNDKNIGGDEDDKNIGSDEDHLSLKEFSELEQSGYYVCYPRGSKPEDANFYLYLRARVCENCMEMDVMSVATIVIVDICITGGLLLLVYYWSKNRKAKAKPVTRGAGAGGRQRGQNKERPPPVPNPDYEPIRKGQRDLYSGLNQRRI

B1: DRA219 (H3 L1 IgG4 AA ADCC-CDC null Fc, SSS prehinge) (Fc fusion)
chain: QVQLVQSGGGVVQPGRSLRLSCKASGYTFTRSTMHWVRQAPGKGLEWIGYINPSSAYTNYNQKFKDRFTISADKSKSTAFLQMDSLRPEDTGVYFCARPQVHYDYNGFPYWGQGTPVTVSSGGGGSGGGGSGGGGSAQDIQMTQSPSSLSASVGDRVTMTCSASSSVSYMNWYQQKPGKAPKRWIYDSSKLASGVPARFSGSGSGTDYTLTISSLQPEDFATYYCQQWSRNPPTFGGGTKLQITSSSEPKSSDKTHTCPPCPAPEAAAPSVFLFPPKPKDTLMISRTPEVTCVVVDVSQEDPEVQFNWYVDGVEVHNAKTKPREEQFNSTYRVVSVLTVLHQDWLNGKAYACAVSNKGLPSSIEKTISKAKGQPREPQVYTLPPSQEEMTKNQVSLTCLVKGFYPSDIAVEWESNGQPENNYKTTPPVLDSDGSFFLYSRLTVDKSRWQEGNVFSCSVMHEALHNHYTQKSLSLSPGK
B2: DRA222 (H4 L1 with IgG4 AA ADCC-CDC null Fc) (Fc fusion)
chain: B1 chain with Q6E, K43Q
B3: DRA161 SMIP (H3L1, IgG4 AA N297A Fc) (Fc fusion)
chain: B1 chain with S245R, S246R, S247T, E248S, N328A, A349E, A351K, A353K
B4: DRA209 SMIP (H3L1, IgG4 AA ADCC-CDC null Fc) (Fc fusion)
chain: B1 chain with S245R, S246R, S247T
B5: DRA229 (Fc fusion)
chain: B1 chain with Q6E, K43Q
B6: DRA228 (Fc fusion)
chain: B1 chain
B7: DRA233 (H3L1, IgG4 AA N297A Fc) (Fc fusion)
chain: B1 chain with N328A, A349E, A351K, A353K
B8: DRA234 (H4L1, IgG4 AA N297A Fc) (Fc fusion)
chain: B1 chain with Q6E, K43Q, N328A, A349E, A351K, A353K
B9: DRA224 (H5L4 with IgG4 AA ADCC-CDC null Fc) (Fc fusion)
chain: QVQLVQSGAEVKKPGASVKVSCKASGYTFTRSTMHWVRQAPGQRLEWMGYINPSSAYTNYNQKFKDRVTITRDTSASTAYMELSSLRSEDTAVYYCARPQVHYDYNGFPYWGQGTLVTVSSGGGGSGGGGSGGGGSGGGGSEIVLTQSPATLSLSPGERATLSCSASSSVSYMNWYQQKPGQAPRLLIYDSSKLASGIPARFSGSGSGTDFTLTISSLEPEDFAVYYCQQWSRNPPTFGGGTKVEIKSSSEPKSSDKTHTCPPCPAPEAAAPSVFLFPPKPKDTLMISRTPEVTCVVVDVSQEDPEVQFNWYVDGVEVHNAKTKPREEQFNSTYRVVSVLTVLHQDWLNGKAYACAVSNKGLPSSIEKTISKAKGQPREPQVYTLPPSQEEMTKNQVSLTCLVKGFYPSDIAVEWESNGQPENNYKTTPPVLDSDGSFFLYSRLTVDKSRWQEGNVFSCSVMHEALHNHYTQKSLSLSPGK
B10: DRA221 (H4L3 with IgG4 AA ADCC-CDC null Fc) (Fc fusion)
chain: B1 chain with Q6E, K43Q, R183L, W184L, L241V, Q242E, T244K
B11: DRA223 (H3L3 with IgG4 AA ADCC-CDC null Fc) (Fc fusion)
chain: B1 chain with R183L, W184L, L241V, Q242E, T244K

biological target: T1, CD3 (human, UniProt P07766 23-207); assay: in vitro binding studies; format not described

binding | Binder
binds | B1
binds | B2

biological target: T1, CD3; assay: flow cytometry on human PBMC gated on CD5+ T-cells

binding | Binder
binds | B3
binds | B4
binds | B5
binds | B6
binds | B7
binds | B8

biological target: T1, CD3; assay: in vitro binding studies, HEK-produced protein; format not described

binding | Binder
binds | B9
binds | B1
binds | B10
binds | B11
binds | B2
